PubChem BioAssay AID504784 – Drosophila RNAi Screening Center | 2011

Purpose: 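Search for regulators of lipid droplet storage in oleate-fed fly cells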 (primary screen)
System: Drosophila Kc167 embryonic cells
Reagents: long dsRNA against Drosophila genes, about 250 ng dsRNA per well
Duration: 4 days
Treatment: cells fed 400 µM oleic acid bound to BSA
Detection: 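Cells imaged and segmented; ratio of lipid droplet area to nuclear area, log-transformed, then normalised as a B-score over the screen; higher means more stored lipid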
Direction: droplet/nuclear area B-score: higher = more stored lipid (overstorage)
The screen tested about 17,000 reagents; below is an unselected part of those that have a named target and a result. 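Each column is one replicate's B-score; the combined score over replicates was not deposited, so single values may mislead.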

Against esn [DRSC05039] the deposit lists droplet/nuclear area B-score, replicate 1 = -0.0534; droplet/nuclear area B-score, replicate 2 = -0.802.
For esn [DRSC07612], the values are droplet/nuclear area B-score, replicate 1 = 0.669; droplet/nuclear area B-score, replicate 2 = -0.666.
Depletion of Obp83cd [DRSC12267] came out at: droplet/nuclear area B-score, replicate 1 = -0.11; droplet/nuclear area B-score, replicate 2 = 0.778.
Cpr97Eb [DRSC15123] scored droplet/nuclear area B-score, replicate 1 = 1.66; droplet/nuclear area B-score, replicate 2 = -0.0212.
Sr-CI [DRSC00790] gave droplet/nuclear area B-score, replicate 1 = 2.51; droplet/nuclear area B-score, replicate 2 = 0.292.
CG11698 [DRSC14355] gave droplet/nuclear area B-score, replicate 2 = -1.5.
With knock-down of Pdi [DRSC11250], the screen gave droplet/nuclear area B-score, replicate 1 = -2.7; droplet/nuclear area B-score, replicate 2 = -1.03.
Depletion of CG32767 [DRSC18386] resulted in: droplet/nuclear area B-score, replicate 1 = 2.34; droplet/nuclear area B-score, replicate 2 = 0.301.
CG4572 [DRSC15603] showed droplet/nuclear area B-score, replicate 1 = 1.22; droplet/nuclear area B-score, replicate 2 = -0.327.
After knock-down of geko [DRSC10044] the results were droplet/nuclear area B-score, replicate 1 = 0.684; droplet/nuclear area B-score, replicate 2 = 0.519.
After knock-down of geko [DRSC10045] the results were droplet/nuclear area B-score, replicate 1 = 0.017; droplet/nuclear area B-score, replicate 2 = 0.206.
After knock-down of mthl4 [DRSC06998], the screen gave droplet/nuclear area B-score, replicate 1 = -1.29; droplet/nuclear area B-score, replicate 2 = 0.947.
For CG3149 [DRSC17732], the values are droplet/nuclear area B-score, replicate 1 = -0.587; droplet/nuclear area B-score, replicate 2 = 0; droplet/nuclear area B-score, replicate 3 = -0.206.
Depletion of CG3961 [DRSC10390] came out at: droplet/nuclear area B-score, replicate 1 = 0.0155; droplet/nuclear area B-score, replicate 2 = -1.71; droplet/nuclear area B-score, replicate 3 = 1.74.
CG3961 [DRSC10391] gave droplet/nuclear area B-score, replicate 1 = 0.359; droplet/nuclear area B-score, replicate 2 = 2.22.
With knock-down of CG33454 [DRSC22914], the record shows droplet/nuclear area B-score, replicate 1 = 1.98; droplet/nuclear area B-score, replicate 2 = -0.155.
Against zfh2 [DRSC17178], the entry reads droplet/nuclear area B-score, replicate 1 = -4.41; droplet/nuclear area B-score, replicate 2 = 0.668.
Against insb [DRSC06995] the deposit lists droplet/nuclear area B-score, replicate 1 = 2.38; droplet/nuclear area B-score, replicate 2 = 1.06.
Depletion of Msh6 [DRSC10759] resulted in: droplet/nuclear area B-score, replicate 1 = -0.316; droplet/nuclear area B-score, replicate 2 = -0.0254.
Silencing of slx1 [DRSC12290] gave: droplet/nuclear area B-score, replicate 1 = -0.8; droplet/nuclear area B-score, replicate 2 = -1.33.
Depletion of CG13992 [DRSC02324] came out at: droplet/nuclear area B-score, replicate 1 = -2.66; droplet/nuclear area B-score, replicate 2 = 1.02.
For Lhr [DRSC06759] the deposit lists droplet/nuclear area B-score, replicate 1 = -3.17; droplet/nuclear area B-score, replicate 2 = -0.195.
For Sidpn [DRSC02056], the values are droplet/nuclear area B-score, replicate 1 = -2.53; droplet/nuclear area B-score, replicate 2 = -0.922.
Against CG1024 [DRSC12496], the entry reads droplet/nuclear area B-score, replicate 1 = -0.743; droplet/nuclear area B-score, replicate 2 = 0.947.
Knock-down of Trpgamma [DRSC03626] resulted in: droplet/nuclear area B-score, replicate 1 = 1.76; droplet/nuclear area B-score, replicate 2 = 2.73.
Depletion of CG14126 (retired record) [DRSC10130] came out at: droplet/nuclear area B-score, replicate 1 = -1.44; droplet/nuclear area B-score, replicate 2 = -1.79.
After knock-down of Cchl [DRSC15949], the record shows droplet/nuclear area B-score, replicate 1 = 0.0318; droplet/nuclear area B-score, replicate 2 = -2.49.
Against Lsp1alpha [DRSC20258], the values are droplet/nuclear area B-score, replicate 1 = -1.57; droplet/nuclear area B-score, replicate 2 = 0.526; droplet/nuclear area B-score, replicate 3 = -1.09.
CG8100 [DRSC10961] gave droplet/nuclear area B-score, replicate 1 = 1.04; droplet/nuclear area B-score, replicate 2 = -0.406.
Lk [DRSC10022] showed droplet/nuclear area B-score, replicate 1 = 0.0584; droplet/nuclear area B-score, replicate 2 = 0.652.
Octbeta3R [DRSC15351] showed droplet/nuclear area B-score, replicate 1 = 0.00351; droplet/nuclear area B-score, replicate 2 = 0.755.
Silencing of Octbeta3R [DRSC16191] gave: droplet/nuclear area B-score, replicate 1 = 1.21; droplet/nuclear area B-score, replicate 2 = -0.201.
Octbeta3R [DRSC21853] scored droplet/nuclear area B-score, replicate 1 = 0.447; droplet/nuclear area B-score, replicate 2 = 0.193.
For Octbeta3R [DRSC21902], the entry reads droplet/nuclear area B-score, replicate 1 = 6.62; droplet/nuclear area B-score, replicate 2 = 0.826.
Octbeta3R [DRSC22350] gave droplet/nuclear area B-score, replicate 1 = -0.996; droplet/nuclear area B-score, replicate 2 = -0.97.
After knock-down of Tango5 [DRSC18023], the screen gave droplet/nuclear area B-score, replicate 1 = -2.48; droplet/nuclear area B-score, replicate 2 = -1.32; droplet/nuclear area B-score, replicate 3 = -0.911.
Against chm [DRSC03341], the entry reads droplet/nuclear area B-score, replicate 1 = 1.33; droplet/nuclear area B-score, replicate 2 = -0.0628.
Silencing of CG11257 [DRSC06068] came out at: droplet/nuclear area B-score, replicate 1 = -0.849; droplet/nuclear area B-score, replicate 2 = 0.332.
CG9173 [DRSC08635] gave droplet/nuclear area B-score, replicate 1 = 0.853; droplet/nuclear area B-score, replicate 2 = 2.53.
For CG2444 [DRSC19846] the deposit lists droplet/nuclear area B-score, replicate 1 = 0.157; droplet/nuclear area B-score, replicate 2 = -0.934; droplet/nuclear area B-score, replicate 3 = 0.701.

Reformatted: entries from further up.
{"gene":"mthl4","dsRNA":"DRSC06998","droplet/nuclear area B-score, replicate 1":-1.29,"droplet/nuclear area B-score, replicate 2":0.947}
{"gene":"CG3149","dsRNA":"DRSC17732","droplet/nuclear area B-score, replicate 1":-0.587,"droplet/nuclear area B-score, replicate 2":0,"droplet/nuclear area B-score, replicate 3":-0.206}
{"gene":"CG3961","dsRNA":"DRSC10390","droplet/nuclear area B-score, replicate 1":0.0155,"droplet/nuclear area B-score, replicate 2":-1.71,"droplet/nuclear area B-score, replicate 3":1.74}
